Assay results taken from patent US9242883B2, “Pre-treatment of sludge” (THE UNIVERSITY OF QUEENSLAND, priority 2011, dated 2016).

Procedure: In this experiment, a lab-scale sequencing batch reactor (SBR) with a working volume of 8 L was used in this study. The SBR was operated with a cycle time of 6-h, consisting of 10 min anoxic feed, 70 min anoxic reaction, 225 min aerobic reaction, 5 min sludge wasting, 45 min settling and 5 min decanting periods. In each cycle, 2 L of synthetic wastewater containing 400 mg COD and 50 mgN/L TKN including 40 mgNH4+-N/L, made from milk powder and ammonium chloride, along with other trace elements, was pumped into the SBR in the 10 min feed period, resulting in a hydraulic retention time (HRT) of 24 h. Before settling, around 133 ml of mixed liquor was wasted, giving rise to a sludge retention time of 15 days. The SBR was operated at a temperature of 18±2° C., with DO being controlled between 1.5-2.0 mg/L by a programmable logic controller (PLC) in the aerobic period.
50% of the wasted mixed liquor was treated by 2.0 mg HNO2-N/L for approximately 24 h, 30 h, 36 h and 42 h, respectively.
The sludge wasted from the SBR was allowed to settle. […] The other 50% of the sludge was sent to disposal.
A control SBR operating under identical conditions was also fed with the same wastewater, but there was no recycle of any sludge to this reactor.

[1] = with FNA treatment, steady state

O=NO [FNA, free nitrous acid]
MLVSS Measured (FNA reactor, steady state): 1686 ± 8 mg/L
MLSS Measured (FNA reactor, steady state, 50% of wasted sludge treated with approx. 2 ppm FNA, pH 6.0, approx. 24 h and recycled): 1762 ± 9 mg/L
overall sludge production relative to control SBR (experimental SBR system): 60%
sludge production reduction (experimental SBR vs control SBR): 40%
effluent NH4—N [1]: 0.1 ± 0.01 mg/L
effluent NO2—N [1]: 0.01 ± 0 mg/L
effluent NO3—N [1]: 11.8 ± 0.4 mg/L
